Results as given in the supplement of paper PMC11348887.
Where a name gives a salt, the structure may show the parent alone. The list shows a part of the results. Small differences around the control level are noise.

Columns and labels:
Settings in all cases: 5 µM; treatment: days 7-14 after plating, readout day 21
[1] = system: hPSC-derived cortical neurons (WA09); assay: nucleus area z-score vs screen plate; higher = larger nuclei (more mature)
[2] = system: hPSC-derived cortical neurons (WA09); assay: total neurite length per nucleus (MAP2) z-score; higher = more neurite growth
[3] = system: hPSC-derived cortical neurons (WA09); assay: nucleus roundness z-score vs screen plate; higher = rounder nuclei (more mature)
[4] = system: hPSC-derived cortical neurons (WA09); assay: KCl-induced FOS+/EGR-1+ double-positive nuclei fraction z-score (KCl minus unstimulated); higher = stronger activity-induced IEG response

Compound	nucleus area z-score [1]	total neurite length per nucleus (z-score) [2]	nucleus roundness z-score [3]	KCl-induced FOS+/EGR-1+ double-positive nuclei fraction z-score [4]
CS(=O)(=O)CCNCc1ccc(-c2ccc3ncnc(Nc4ccc(OCc5cccc(F)c5)c(Cl)c4)c3c2)o1 [Lapatinib]	-3.77	-1.13	-1.01	-1.06
COC(=O)Nc1nc2cc(C(=O)c3ccc(F)cc3)ccc2[nH]1 [Flubendazole]	0.69	-1.15	-0.985	-0.464
Cc1ncc([N+](=O)[O-])n1CCO [Metronidazole]	0.649	-0.789	-0.542	-0.621
CN(C)/N=N/c1[nH]cnc1C(N)=O [Dacarbazine]	0.731	-0.321	-0.132	0.441
C=C(C)[C@@H]1CC[C@]2(C(=O)O)CC[C@]3(C)[C@H](CC[C@@H]4[C@@]5(C)CC[C@H](O)C(C)(C)[C@@H]5CC[C@]43C)[C@@H]12 [Betulinic acid]	0.539	-1.13	-1.83	-0.541
Cn1c2ccccc2c2c3c(c4c5ccccc5n(CCC#N)c4c21)CNC3=O	-0.127	0.734	0.994	-0.819
C/C(=C\C(=O)Nc1ccccc1C(=O)O)c1ccc2ccccc2c1	-0.0609	0.82	0.624	1.03
O=C(Nc1ccc([N+](=O)[O-])cc1O)Nc1ccccc1Br	-3.82	-2.57	0.691	-0.711
N=C(N)NC(=O)c1nc(Cl)c(N)nc1N [Amiloride HCl]	-0.628	0.212	-0.194	-0.395
CCOC(=O)C1=C(C)NC(C)=C(C(=O)OCC)C1c1ccccc1/C=C/C(=O)OC(C)(C)C [Lacidipine]	-0.508	-0.432	-0.204	-0.0559
Cc1cc(Nc2cc(N3CCN(C)CC3)nc(Sc3ccc(NC(=O)C4CC4)cc3)n2)n[nH]1 [VX-680 (Tozasertib_ MK-0457)]	1.01	2.02	0.183	-0.438
FC(F)c1nc2ccccc2n1-c1nc(N2CCOCC2)nc(N2CCOCC2)n1	0.421	-0.293	0.0854	0.0471
Cc1cc(N2CCOCC2)ccc1Nc1nc(NC2CCCCC2)c2[nH]cnc2n1	-0.547	0.00909	-0.18	-0.767
COc1cc2c(Oc3ccc(NC(=O)C4(C(=O)Nc5ccc(F)cc5)CC4)cc3F)ccnc2cc1OCCCN1CCOCC1	-3.61	-0.446	-1.73	-1.65
CN1CCN(c2ccc(Nc3ncc4cc(C#N)c(=O)n(C5CCCC5)c4n3)cc2)CC1	-4.14	-2.19	-4.33	-0.586
Cc1cnc(NC(=O)Nc2cc(Br)c(C)cc2OC[C@@H]2CNCCO2)cn1	0.838	-0.249	0.1	3.04
O=C(Nc1ccccc1C(=O)NC1CCCCNC1=O)c1cc2ccccc2s1 (centres undefined)	-0.21	0.0558	0.419	0.346
COC(=O)N1CCN(Cc2cccc(NC(=O)Nc3ccc(C)nc3)c2F)CC1	1.54	-0.757	0.424	-0.288
O=C(c1ccc(Cl)cc1)N(Cc1ccccc1)C1CCCCC1	0.32	0.234	0.372	0.959
Cc1[nH]nc(C(F)(F)F)c1Cc1sc2c(c1C(=O)N1C[C@](C)(O)CO1)c(=O)n(C)c(=O)n2C(C)C	-0.292	0.142	-0.769	-0.736
C[C@H](O)C(=O)Nc1c(I)c(C(=O)NC(CO)CO)c(I)c(C(=O)NC(CO)CO)c1I [Iopamidol]	0.0741	-0.118	-1.83	1.78

Compound	nucleus area z-score [1]	total neurite length per nucleus (z-score) [2]	nucleus roundness z-score [3]	KCl-induced FOS+/EGR-1+ double-positive nuclei fraction z-score [4]
O=C(NCC(=O)N1CCCC1)Nc1ccc2cnccc2c1	0.551	1.78	-0.746	0.0348
CC(C)c1cc(-c2ccc(F)c3ccccc23)nc(N)n1	0.365	1.33	0.74	-0.0141
O=c1[nH]cnc2c1ncn2[C@@H]1O[C@H](CO)[C@@H](O)[C@H]1O [Inosine]	0.199	-0.173	0.392	0.846
CCOC(=O)C1=C(C)NC(C)=C(C(=O)OC)C1c1cccc(Cl)c1Cl (centres undefined) [Felodipine]	0.0934	-1.46	0.169	-0.499
CC1(C)O[C@H]2CC(=O)OC[C@]23[C@H]2CC[C@@]4(C)[C@H](c5ccoc5)OC(=O)[C@H]5O[C@]54[C@]2(C)C(=O)C[C@@H]13 [Limonin]	3.29	-0.799	-0.821	0.974
OC[C@@H](O)[C@@H](O)[C@H](O)[C@@H](O)CO [Sorbitol]	0.582	-1.28	-1.41	1.86
O=C(NCc1ccc(Oc2ccccc2)cc1)c1nc(-c2cc(Br)c(O)c(Br)c2)no1	0.372	1.31	1.5	0.918
C[C@]12CC[C@@H]3c4ccc(O)cc4CC[C@H]3[C@@H]1CC[C@@H]2OC(=O)CCC1CCCC1 [Estradiol Cypionate]	0.199	-0.0944	-0.551	-0.631
O=C(CCc1ccc(O)cc1)c1c(O)cc(O)cc1O [Phloretin]	0.825	0.879	0.0178	2.75
N=C(N)NC(=O)c1nc(Cl)c(N)nc1N [Amiloride HCl dihydrate]	0.0926	2.81	-0.531	-0.0351
CN(C)CCCN1c2ccccc2Sc2ccc(Cl)cc21 [Chlorpromazine HCl]	-0.749	-1.42	-2.18	-0.242
Cn1c(=O)c2[nH]cnc2n(C)c1=O [Aminophylline]	0.103	1.49	1.67	0.0414
CC(C)(C)NS(=O)(=O)c1cncc(-c2cc(F)c3nc(N)nn3c2)c1	-0.34	-0.716	0.144	1.04
CC(C)n1nc(-c2cc3cc(O)ccc3[nH]2)c2c(N)ncnc21	-1.37	-2.42	-3.75	-1.07
CC(C(=O)O)c1ccc2c(c1)Cc1cccnc1O2 (centres undefined) [Pranoprofen]	0.685	-0.665	0.276	-0.647
COc1cc2ncnc(Sc3nnc(C)s3)c2cc1OC	0.698	0.983	0.249	-0.339
Nc1nc(-c2nn(Cc3ccccc3F)c3ncccc23)ncc1C1CC1	0.752	0.289	0.792	-0.68
C=CC(=O)Nc1ccc(CN2C(=O)N(c3cc(OC)cc(OC)c3)Cc3cnc(Nc4ccc(N5CCN(C)CC5)cc4)nc32)cc1	-11.1	-4.74	-4.5	-2.18
NCc1c[nH]c(=S)n1[C@@H]1CCc2c(F)cc(F)cc2C1 [(R)-Nepicastat HCl]	0.643	0.475	0.817	0.656
c1ccc(CC2=NCCN2)cc1 [Tolazoline HCl]	0.154	0.375	-1	4.09
CN(C/C=C/C#CC(C)(C)C)Cc1cccc2ccccc12 [Terbinafine HCl]	-0.774	-1.18	-1.4	-0.392

Compound	nucleus area z-score [1]	total neurite length per nucleus (z-score) [2]	nucleus roundness z-score [3]	KCl-induced FOS+/EGR-1+ double-positive nuclei fraction z-score [4]
COc1cc(N2CCN(C)CC2)ccc1Nc1nccc(-c2cn(C)c3cnccc23)n1	-11.8	-3.24	-6.93	-0.225
O=C(c1cncc(Br)c1)N1CCC(N2CCCC2)CC1	0.678	0.463	0.304	0.925
C[N+](C)(C)C[C@H](O)CC(=O)[O-] [L-carnitine]	1.29	-0.0995	-0.423	0.795
CC(=O)NC[C@H]1CN(c2ccc(N3CCOCC3)c(F)c2)C(=O)O1 [Linezolid]	-0.136	0.156	0.78	0.463
C[C@]12CC[C@@H]3c4ccc(O)cc4CC[C@H]3[C@@H]1C[C@@H](O)[C@@H]2O [Estriol]	1.21	0.0643	-0.304	1.13
CC(=O)c1cc([N+](=O)[O-])c(Sc2ccc(F)cc2F)s1	-0.0844	0.0385	0.414	-0.0241
O=C1Nc2ccccc2/C1=C1/Nc2ccccc2C1=O [Indirubin]	-0.926	0.302	0.0354	0.33
Cc1cc(OCCCS(C)(=O)=O)cc(C)c1-c1cccc(COc2ccc3c(c2)OC[C@H]3CC(=O)O)c1	1.49	-0.163	-0.715	1.1
OCCn1cc(-c2ccc3c(c2)CC/C3=N\O)c(-c2ccncc2)n1	0.604	-0.897	-1.55	-1.19
Cn1c(N2CCCCS2(=O)=O)nc(C(=O)NCc2ccc(F)cc2)c(O)c1=O	-0.463	0.603	0.924	1.98
CN1CCC(=C2c3ccccc3C=Cc3ccccc32)CC1 [Cyproheptadine hydrochloride]	-0.551	-1.47	-2.01	-0.418
C[N+](C)(C)CC(O)CC(=O)[O-] (racemic) [DL-Carnitine HCl]	-0.537	0.169	0.22	0.129
CC1(C)CCC(c2ccc(Cl)cc2)=C(CN2CCN(c3ccc(C(=O)NS(=O)(=O)c4ccc(N[C@H](CCN5CCOCC5)CSc5ccccc5)c(S(=O)(=O)C(F)(F)F)c4)cc3)CC2)C1 [ABT-263 (Navitoclax)]	-3.69	2.35	-4.68	8.54
O=C(O)C(Cc1ccccc1[N+](=O)[O-])=NNc1nc(-c2ccc(Cl)c(Cl)c2)cs1 (mixture of isomers)	-0.0577	0.622	0.226	-0.3
CC(C)(C)c1cc(NC(=O)Nc2ccc(-c3cn4c(n3)sc3cc(OCCN5CCOCC5)ccc34)cc2)no1 [Quizartinib (AC220)]	-0.413	-0.142	-4.45	1.63
CC[C@H](C)C(=O)O[C@H]1CCC=C2C=C[C@H](C)[C@H](CC[C@@H]3C[C@@H](O)CC(=O)O3)[C@H]21 [Mevastatin]	-1.09	0.0729	-0.558	-0.78
CCN(CC)CCNC(=O)c1c(C)[nH]c(/C=C2\C(=O)Nc3ccc(F)cc32)c1C [Sunitinib]	-2.57	-1.04	-6.07	-0.241
CCCCCCCN(CC)CCCC(O)c1ccc(NS(C)(=O)=O)cc1 (centres undefined) [Ibutilide Fumarate]	0.98	-0.293	-0.136	-1.46
C[C@]12C=CC(=O)C=C1CC[C@H]1[C@@H]3C[C@@H](O)[C@](O)(C(=O)CO)[C@@]3(C)C[C@H](O)[C@@]12F [Triamcinolone]	0.0292	-0.101	-0.233	-0.171

Quoted from the listing.
O=C(O)C(Cc1ccccc1[N+](=O)[O-])=NNc1nc(-c2ccc(Cl)c(Cl)c2)cs1 (mixture of isomers) | nucleus roundness z-score [3]: 0.226
CCN(CC)CCNC(=O)c1c(C)[nH]c(/C=C2\C(=O)Nc3ccc(F)cc32)c1C [Sunitinib] | total neurite length per nucleus (z-score) [2]: -1.04
C[C@]12C=CC(=O)C=C1CC[C@H]1[C@@H]3C[C@@H](O)[C@](O)(C(=O)CO)[C@@]3(C)C[C@H](O)[C@@]12F [Triamcinolone] | nucleus area z-score [1]: 0.0292
COc1cc(N2CCN(C)CC2)ccc1Nc1nccc(-c2cn(C)c3cnccc23)n1 | nucleus area z-score [1]: -11.8
